The list shows a part of the results.
Each sequence was assayed against OsWRKY34 (Oryza sativa, UniProt Q0JBA9 1-250) (assay: protein-binding microarray (RPBM); PBS, 2% BSA, 51.3 ng/ul salmon testes DNA, 50 uM zinc acetate, 200 nM TF, 25 C, 1 h; high values mean tight binding). Details: protein: recombinant; tags: N-terminal polyhistidine and DsRed monomer fusion (pET32a); label: CyDye5-dUTP incorporated in the synthesized complementary strand; 3' TTTTT single-stranded linker to array surface; dsDNA, one strand shown.
Outline: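 Per-feature fluorescence intensity (arbitrary units), read on an Axon 4000B scanner, is the binding signal. Transcription factors carrying an N-terminal polyhistidine tag and DsRed fusion were expressed in E. coli BL21-CodonPlus and purified on Ni–NTA. A custom Agilent array, made double-stranded by primer extension with Cy5-dUTP and blocked with 2% BSA, was incubated with 200 nM protein in PBS, 2% BSA, salmon testes DNA and 50 µM zinc acetate at 25 °C for 1 h and then washed.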

Protein sequences, listed by entry. Tags and fused reporters are not part of them.
UniProt Q0JBA9, entry or part of it: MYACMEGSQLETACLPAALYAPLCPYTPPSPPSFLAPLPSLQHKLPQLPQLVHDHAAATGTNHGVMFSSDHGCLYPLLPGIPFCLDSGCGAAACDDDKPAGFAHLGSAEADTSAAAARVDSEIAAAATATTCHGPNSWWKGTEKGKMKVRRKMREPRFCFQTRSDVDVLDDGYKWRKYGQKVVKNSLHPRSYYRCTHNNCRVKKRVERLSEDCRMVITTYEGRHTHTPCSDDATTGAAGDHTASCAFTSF

**Q.** With “GGTGGGGAGGTCACCGGGGCGAGGCGGGAGAGGAGATCCGCGGAGTCACCTAGTGCAG” as the sequence, how does the binding signal read?
**A.** Its binding signal is 9630 fluorescence intensity (a.u.).

**Q.** How did the binding signal turn out when “CCACCCGCTCGCCCGTCCGTTCGATTCGACGACACCTTCACGGAGTCACCTAGTGCAG” was run?
**A.** The binding signal was 10900 fluorescence intensity (a.u.).

**Q.** With “GTCCCTCGTGGGCCCACTCCGCCGCTCTCCTCTCCGTCAACGGAGTCACCTAGTGCAG” as the sequence, how does the binding signal read?
**A.** The binding signal was 8590 fluorescence intensity (a.u.).

**Q.** How did the binding signal turn out when “AGCCTATATTTTACACATTTTATTTTCCCTCTTTTCTCCTCGGAGTCACCTAGTGCAG” was run?
**A.** The binding signal was 9520 fluorescence intensity (a.u.).

**Q.** How did the binding signal turn out when “TCCTCGTCATCCTCATCCTCCTCCTCTAACTCGCCCAAGCCGGAGTCACCTAGTGCAG” was run?
**A.** The binding signal was 8040 fluorescence intensity (a.u.).

**Q.** For “CCACCGTCGTCGGCTCTGTGACCATCGCCGTTTCTTCGACCGGAGTCACCTAGTGCAG”, which binding signal is on record?
**A.** Its binding signal is 8970 fluorescence intensity (a.u.).

**Q.** “GGTTTGACTCTATTTTTCCTTTAGTATGGTGTCTGCTCTCCGGAGTCACCTAGTGCAG” was tested. Which binding signal did it give?
**A.** Its binding signal is 8280 fluorescence intensity (a.u.).

**Q.** How did the binding signal turn out when “TGGTTGTGTTTAGTTTCAGAATTTTTCTTCAAACTTCTAACGGAGTCACCTAGTGCAG” was run?
**A.** The binding signal was 9220 fluorescence intensity (a.u.).

**Q.** How did the binding signal turn out when “ACCCTTTTTTTTCGCATGATAGCTACATACAACTTATATACGGAGTCACCTAGTGCAG” was run?
**A.** The binding signal was 8580 fluorescence intensity (a.u.).

**Q.** “GCCACTGCCCTGCTGCCTCACCTCAACCTCTCATTGCCGTCGGAGTCACCTAGTGCAG” was tested. Which binding signal did it give?
**A.** Its binding signal is 12000 fluorescence intensity (a.u.).

**Q.** For “AATATGGTTCTCTAGGTATCTTTTTAATGATGGTAAAATTCGGAGTCACCTAGTGCAG”, which binding signal is on record?
**A.** The binding signal was 8720 fluorescence intensity (a.u.).

**Q.** For “GGCCCAATACCACATGTGACATCTCAGCCCACTAGGCCCACGGAGTCACCTAGTGCAG”, which binding signal is on record?
**A.** Its binding signal is 8420 fluorescence intensity (a.u.).

**Q.** How did the binding signal turn out when “TCCAAACGATTATTCCTACCGTTTTTATGTGTTTTCTTACCGGAGTCACCTAGTGCAG” was run?
**A.** The binding signal was 10300 fluorescence intensity (a.u.).

**Q.** How did the binding signal turn out when “TACTACTTCAGTTCTCGCTCGTTCTTATCCTCCTCTGCCACGGAGTCACCTAGTGCAG” was run?
**A.** The binding signal was 8650 fluorescence intensity (a.u.).

**Q.** How did the binding signal turn out when “CGGCCCAGGTGGGAGAGGAGGGGAGGGGAGGGGAGGGATGCGGAGTCACCTAGTGCAG” was run?
**A.** The binding signal was 19800 fluorescence intensity (a.u.).

**Q.** For “TCAAGGAACAATTCATCGCCCTTTGTTCTTACCCCAACATCGGAGTCACCTAGTGCAG”, which binding signal is on record?
**A.** Its binding signal is 8100 fluorescence intensity (a.u.).

**Q.** “TGTGGACAAATCATTCGGGGTGACATTTGTGTGTTCTTGTCGGAGTCACCTAGTGCAG” was tested. Which binding signal did it give?
**A.** The binding signal was 8080 fluorescence intensity (a.u.).

**Q.** With “CATGGCTCATGTGTAATTGATCTGTTTGATGGGCTACTATCGGAGTCACCTAGTGCAG” as the sequence, how does the binding signal read?
**A.** The binding signal was 8150 fluorescence intensity (a.u.).

**Q.** With “ACTTTTGGACATGCTTTATCCATAACCCCGACAATACTCACGGAGTCACCTAGTGCAG” as the sequence, how does the binding signal read?
**A.** Its binding signal is 8610 fluorescence intensity (a.u.).

**Q.** With “CTCGGCTGGTTCGCCTCCTACTCTACGCTTGCTGCTGCAGCGGAGTCACCTAGTGCAG” as the sequence, how does the binding signal read?
**A.** Its binding signal is 9320 fluorescence intensity (a.u.).

**Q.** For “CCACGCCACGCCCACGCCCACGCCCACGCCCACGCCTCGCCGGAGTCACCTAGTGCAG”, which binding signal is on record?
**A.** Its binding signal is 9070 fluorescence intensity (a.u.).

**Q.** Which binding signal does the source give for “CGTGTACACCCAACACGAGGCCCGTTTTCTCAGCCCTAGTCGGAGTCACCTAGTGCAG” here?
**A.** The binding signal was 8440 fluorescence intensity (a.u.).

**Q.** With “AGGGGTGTCCTTGTCTTTCGCCATTTTCTCTCTCGCTCGGCGGAGTCACCTAGTGCAG” as the sequence, how does the binding signal read?
**A.** The binding signal was 10200 fluorescence intensity (a.u.).

**Q.** Which binding signal does the source give for “CGTTTTTCTTCTCACCTCTTCTCTCTTATTCACATGTGTGCGGAGTCACCTAGTGCAG” here?
**A.** The binding signal was 8990 fluorescence intensity (a.u.).

**Q.** How did the binding signal turn out when “CCAGGAGGGTGAGCTTGATGCAGGGGCGGGTGCGGGCGAGCGGAGTCACCTAGTGCAG” was run?
**A.** The binding signal was 12500 fluorescence intensity (a.u.).

**Q.** How did the binding signal turn out when “ATGTGTTTGGTTGAGAGGCTAGAAGGGATGGGATGGTTCACGGAGTCACCTAGTGCAG” was run?
**A.** The binding signal was 10300 fluorescence intensity (a.u.).

**Q.** Which binding signal does the source give for “CTTGCTTGATTTGCCTCGCCTGCCCTTTTTCTCGCGCGGCCGGAGTCACCTAGTGCAG” here?
**A.** The binding signal was 9260 fluorescence intensity (a.u.).

**Q.** How did the binding signal turn out when “TTCTCCTCGCGTTATCCTTCGCCTCCGCCGCGATGCTCTCCGGAGTCACCTAGTGCAG” was run?
**A.** The binding signal was 12200 fluorescence intensity (a.u.).

**Q.** “AGTAGCATTGCCCATTAGCACTAAGTACAATTAGTGAATTCGGAGTCACCTAGTGCAG” was tested. Which binding signal did it give?
**A.** The binding signal was 8200 fluorescence intensity (a.u.).

**Q.** Which binding signal does the source give for “GTTAAGGGGTATTTCTGTCTTTTTGCGTTGTACTCTTCTCCGGAGTCACCTAGTGCAG” here?
**A.** Its binding signal is 10500 fluorescence intensity (a.u.).

**Q.** With “AAACCCAACATTGTAACCCTGCATTGCACATCACAGAAACCGGAGTCACCTAGTGCAG” as the sequence, how does the binding signal read?
**A.** The binding signal was 9520 fluorescence intensity (a.u.).

**Q.** Which binding signal does the source give for “ACAAGGATGGGAATGAAGTGGGCTGTGATTGTGAGTTTGTCGGAGTCACCTAGTGCAG” here?
**A.** The binding signal was 8770 fluorescence intensity (a.u.).

**Q.** With “GCTTATTCACTAGATTATTGCTGCGGGTTATATACTCCGTCGGAGTCACCTAGTGCAG” as the sequence, how does the binding signal read?
**A.** The binding signal was 10100 fluorescence intensity (a.u.).

**Q.** For “TTCCTTCAGTATCAATGGGCCTTTGTTTTTTACTCACTCCCGGAGTCACCTAGTGCAG”, which binding signal is on record?
**A.** The binding signal was 8730 fluorescence intensity (a.u.).

**Q.** For “TTTTATGTGTAAAATATTTTCACCGTGTTATATATGTTCACGGAGTCACCTAGTGCAG”, which binding signal is on record?
**A.** The binding signal was 10300 fluorescence intensity (a.u.).

**Q.** With “TTATTTGTTCATCCGCGTTGTAGTTCAGTGCCGTCTCCTTCGGAGTCACCTAGTGCAG” as the sequence, how does the binding signal read?
**A.** Its binding signal is 10200 fluorescence intensity (a.u.).

**Q.** Which binding signal does the source give for “GCTGCGCACCTAATGCTACTGTTTTGTTAGTATTTATTTACGGAGTCACCTAGTGCAG” here?
**A.** The binding signal was 8460 fluorescence intensity (a.u.).

**Q.** For “ATTCTGGCTTTGCTGCTAGTCCCATCACAACTCTACTAGCCGGAGTCACCTAGTGCAG”, which binding signal is on record?
**A.** Its binding signal is 8610 fluorescence intensity (a.u.).

**Q.** For “TGTATTAGGCACTCTCCATATCTCTTACCTCTCATCTTGGCGGAGTCACCTAGTGCAG”, which binding signal is on record?
**A.** The binding signal was 10600 fluorescence intensity (a.u.).

**Q.** With “CTCCGTTTCATATTTTAAGACTTTCTTGTATTGCCCAGTTCGGAGTCACCTAGTGCAG” as the sequence, how does the binding signal read?
**A.** The binding signal was 12900 fluorescence intensity (a.u.).

**Q.** “TCCCTGACCCCACCAGATCATACTCAGATATATACTCCCGCGGAGTCACCTAGTGCAG” was tested. Which binding signal did it give?
**A.** Its binding signal is 8320 fluorescence intensity (a.u.).

**Q.** How did the binding signal turn out when “TTTCCGTCCGAATTTCTTGGTGAAACATGTTTTTCTTTCCCGGAGTCACCTAGTGCAG” was run?
**A.** The binding signal was 10800 fluorescence intensity (a.u.).
